The series deals with MclX-His (Bacillus thuringiensis subsp. kurstaki HD73). Description: EMSA. To be noted: 1 ng probe, increasing MclX (lanes 2-5, amounts not stated); EMSA as in Shen et al., 2021; pH and temperature not given; 1 ng FAM-labelled probe; recombinant protein; residues 1-220; protein details: C-terminal His (pET21b); label: FAM (on reverse primer PcwlC-R); probe letters rebuilt from the primers and the genome. On the technique in general: Mobility shift assays separate free from complexed probe on a gel.

No signal at the amounts used counts as a negative.

Turning to “TATTCATCAACATCTCCTTTCTTAATATCTTATTCAAAACTTGTCTTATTGCTATTCCCACTTACAATCTTAACTGTGCCCATACGTCCTATATTTTCTAAAAGTTATGCAATTTGTTTTCGATATAAAAAAGCTATCGCTTCATAAATCGAATGATTTATTCTCTAAATTACTTTTACATGAATGACGACACGAACAAAAAAG (double strand) [PcwlC promoter probe]”, the binding result is recorded as “no binding”.
